No constants are given. Whether binding was seen depends on the method and setting. Some entries that bind do so weakly or less than the wild type. Sequences can lack the tags named with a protein. Each block holds one binder with its values, some of them ahead of it.
Experiments:
[1] = target: T1, EphB4 Fc (UniProt P54761); test: ELISA; competition: EphB4 Fc (1 µg/ml) on protein A-coated plates, 3 hours with 0.02 nM ephrin-B2 AP and different concentrations of the forms of TNYL-RAW; bound ephrin-B2 AP read with pNPP; both purified
T1 sequence: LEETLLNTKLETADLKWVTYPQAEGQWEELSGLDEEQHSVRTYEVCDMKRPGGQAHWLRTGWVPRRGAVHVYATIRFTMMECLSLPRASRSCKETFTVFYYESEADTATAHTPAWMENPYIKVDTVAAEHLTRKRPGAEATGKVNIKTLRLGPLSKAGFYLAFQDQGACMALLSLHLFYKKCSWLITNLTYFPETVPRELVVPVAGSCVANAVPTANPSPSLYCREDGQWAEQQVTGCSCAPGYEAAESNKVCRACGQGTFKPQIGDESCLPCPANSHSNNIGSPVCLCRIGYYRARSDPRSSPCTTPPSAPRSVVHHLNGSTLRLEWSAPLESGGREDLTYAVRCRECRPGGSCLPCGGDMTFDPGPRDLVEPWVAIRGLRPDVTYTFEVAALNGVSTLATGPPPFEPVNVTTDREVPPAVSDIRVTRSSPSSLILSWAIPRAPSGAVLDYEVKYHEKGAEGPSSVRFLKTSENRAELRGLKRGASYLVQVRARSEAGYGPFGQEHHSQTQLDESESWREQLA

[2] = target: T2, TNYL-RAW fused with human Fc (TNYL-RAW-Fc); test: ELISA; biotinylated TNYL-RAW captured on streptavidin-coated wells or TNYL-RAW-Fc captured on anti-Fc antibody; EphB4 AP in cell culture medium diluted in TBST added for 3 hours; AP activity read with pNPP; only the target purified
T2 sequence: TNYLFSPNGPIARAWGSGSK

binding [1]: binds
Binder: TNYLFSPNGPIARAWGSGSK (Fc fusion) [TNYL-RAW fused with human Fc (TNYL-RAW-Fc)]

binding [2]: binds
B1: mouse EphB4 AP (receptor, UniProt P54761 16-539)
chain: T1 sequence
